Results are given in words; binding and its absence hold for the method and conditions named. Binding seen in cells or lysates may run through a third protein. Some results given as binding are weak or reduced against the parent protein; the word gives no strength.
B1: MCM3 (protein, UniProt P25205 1-808)
chain: MAGTVVLDDVELREAQRDYLDFLDDEEDQGIYQSKVRELISDNQYRLIVNVNDLRRKNEKRANRLLNNAFEELVAFQRALKDFVASIDATYAKQYEEFYVGLEGSFGSKHVSPRTLTSCFLSCVVCVEGIVTKCSLVRPKVVRSVHYCPATKKTIERRYSDLTTLVAFPSSSVYPTKDEENNPLETEYGLSVYKDHQTITIQEMPEKAPAGQLPRSVDVILDDDLVDKAKPGDRVQVVGTYRCLPGKKGGYTSGTFRTVLIACNVKQMSKDAQPSFSAEDIAKIKKFSKTRSKDIFDQLAKSLAPSIHGHDYVKKAILCLLLGGVERDLENGSHIRGDINILLIGDPSVAKSQLLRYVLCTAPRAIPTTGRGSSGVGLTAAVTTDQETGERRLEAGAMVLADRGVVCIDEFDKMSDMDRTAIHEVMEQGRVTIAKAGIHARLNARCSVLAAANPVYGRYDQYKTPMENIGLQDSLLSRFDLLFIMLDQMDPEQDREISDHVLRMHRYRAPGEQDGDAMPLGSAVDILATDDPNFSQEDQQDTQIYEKHDNLLHGTKKKKEKMVSAAFMKKYIHVAKIIKPVLTQESATYIAEEYSRLRSQDSMSSDTARTSPVTARTLETLIRLATAHAKARMSKTVDLQDAEEAVELVQYAYFKKVLEKEKKRKKRSEDESETEDEEEKSQEDQEQKRKRRKTRQPDAKDGDSYDPYDFSDTEEEMPQVHTPKTADSQETKESQKVELSESRLKAFKVALLDVFREAHAQSIGMNRLTESINRDSEEPFSSVEIQAALSKMQDDNQVMVSEGIIFLI
B2: MCM5 (protein, UniProt P33992 1-734)
chain: MSGFDDPGIFYSDSFGGDAQADEGQARKSQLQRRFKEFLRQYRVGTDRTGFTFKYRDELKRHYNLGEYWIEVEMEDLASFDEDLADYLYKQPAEHLQLLEEAAKEVADEVTRPRPSGEEVLQDIQVMLKSDASPSSIRSLKSDMMSHLVKIPGIIIAASAVRAKATRISIQCRSCRNTLTNIAMRPGLEGYALPRKCNTDQAGRPKCPLDPYFIMPDKCKCVDFQTLKLQELPDAVPHGEMPRHMQLYCDRYLCDKVVPGNRVTIMGIYSIKKFGLTTSRGRDRVGVGIRSSYIRVLGIQVDTDGSGRSFAGAVSPQEEEEFRRLAALPNVYEVISKSIAPSIFGGTDMKKAIACLLFGGSRKRLPDGLTRRGDINLLMLGDPGTAKSQLLKFVEKCSPIGVYTSGKGSSAAGLTASVMRDPSSRNFIMEGGAMVLADGGVVCIDEFDKMREDDRVAIHEAMEQQTISIAKAGITTTLNSRCSVLAAANSVFGRWDETKGEDNIDFMPTILSRFDMIFIVKDEHNEERDVMLAKHVITLHVSALTQTQAVEGEIDLAKLKKFIAYCRVKCGPRLSAEAAEKLKNRYIIMRSGARQHERDSDRRSSIPITVRQLEAIVRIAEALSKMKLQPFATEADVEEALRLFQVSTLDAALSGTLSGVEGFTSQEDQEMLSRIEKQLKRRFAIGSQVSEHSIIKDFTKQKYPEHAIHKVLQLMLRRGEIQHRMQRKVLYRLK
B3: MCM6 (protein, UniProt Q14566 1-821)
chain: MDLAAAAEPGAGSQHLEVRDEVAEKCQKLFLDFLEEFQSSDGEIKYLQLAEELIRPERNTLVVSFVDLEQFNQQLSTTIQEEFYRVYPYLCRALKTFVKDRKEIPLAKDFYVAFQDLPTRHKIRELTSSRIGLLTRISGQVVRTHPVHPELVSGTFLCLDCQTVIRDVEQQFKYTQPNICRNPVCANRRRFLLDTNKSRFVDFQKVRIQETQAELPRGSIPRSLEVILRAEAVESAQAGDKCDFTGTLIVVPDVSKLSTPGARAETNSRVSGVDGYETEGIRGLRALGVRDLSYRLVFLACCVAPTNPRFGGKELRDEEQTAESIKNQMTVKEWEKVFEMSQDKNLYHNLCTSLFPTIHGNDEVKRGVLLMLFGGVPKTTGEGTSLRGDINVCIVGDPSTAKSQFLKHVEEFSPRAVYTSGKASSAAGLTAAVVRDEESHEFVIEAGALMLADNGVCCIDEFDKMDVRDQVAIHEAMEQQTISITKAGVKATLNARTSILAAANPISGHYDRSKSLKQNINLSAPIMSRFDLFFILVDECNEVTDYAIARRIVDLHSRIEESIDRVYSLDDIRRYLLFARQFKPKISKESEDFIVEQYKHLRQRDGSGVTKSSWRITVRQLESMIRLSEAMARMHCCDEVQPKHVKEAFRLLNKSIIRVETPDVNLDQEEEIQMEVDEGAGGINGHADSPAPVNGINGYNEDINQESAPKASLRLGFSEYCRISNLIVLHLRKVEEEEDESALKRSELVNWYLKEIESEIDSEEELINKKRIIEKVIHRLTHYDHVLIELTQAGLKGSTEGSESYEEDPYLVVNPNYLLED
B4: Cdc6 (protein, UniProt Q99741 1-560)
chain: MPQTRSQAQATISFPKRKLSRALNKAKNSSDAKLEPTNVQTVTCSPRVKALPLSPRKRLGDDNLCNTPHLPPCSPPKQGKKENGPPHSHTLKGRRLVFDNQLTIKSPSKRELAKVHQNKILSSVRKSQEITTNSEQRCPLKKESACVRLFKQEGTCYQQAKLVLNTAVPDRLPAREREMDVIRNFLREHICGKKAGSLYLSGAPGTGKTACLSRILQDLKKELKGFKTIMLNCMSLRTAQAVFPAIAQEICQEEVSRPAGKDMMRKLEKHMTAEKGPMIVLVLDEMDQLDSKGQDVLYTLFEWPWLSNSHLVLIGIANTLDLTDRILPRLQAREKCKPQLLNFPPYTRNQIVTILQDRLNQVSRDQVLDNAAVQFCARKVSAVSGDVRKALDVCRRAIEIVESDVKSQTILKPLSECKSPSEPLIPKRVGLIHISQVISEVDGNRMTLSQEGAQDSFPLQQKILVCSLMLLIRQLKIKEVTLGKLYEAYSKVCRKQQVAAVDQSECLSLSGLLEARGILGLKRNKETRLTKVFFKIEEKEIEHALKDKALIGNILATGLP
B5: Cdc45 (protein, UniProt O75419 1-566)
chain: MFVSDFRKEFYEVVQSQRVLLFVASDVDALCACKILQALFQCDHVQYTLVPVSGWQELETAFLEHKEQFHYFILINCGANVDLLDILQPDEDTIFFVCDTHRPVNVVNVYNDTQIKLLIKQDDDLEVPAYEDIFRDEEEDEEHSGNDSDGSEPSEKRTRLEEEIVEQTMRRRQRREWEARRRDILFDYEQYEYHGTSSAMVMFELAWMLSKDLNDMLWWAIVGLTDQWVQDKITQMKYVTDVGVLQRHVSRHNHRNEDEENTLSVDCTRISFEYDLRLVLYQHWSLHDSLCNTSYTAARFKLWSVHGQKRLQEFLADMGLPLKQVKQKFQAMDISLKENLREMIEESANKFGMKDMRVQTFSIHFGFKHKFLASDVVFATMSLMESPEKDGSGTDHFIQALDSLSRSNLDKLYHGLELAKKQLRATQQTIASCLCTNLVISQGPFLYCSLMEGTPDVMLFSRPASLSLLSKHLLKSFVCSTKNRRCKLLPLVMAAPLSMEHGTVTVVGIPPETDSSDRKNFFGRAFEKAAESTSSRMLHNHFDLSVIELKAEDRSKFLDALISLLS

Chains of the proteins cited; added tags and fusions are not shown. Lines headed by an entry give the natural chain unless they say otherwise; changes in a name come on top.
UniProt Q9Y5B9: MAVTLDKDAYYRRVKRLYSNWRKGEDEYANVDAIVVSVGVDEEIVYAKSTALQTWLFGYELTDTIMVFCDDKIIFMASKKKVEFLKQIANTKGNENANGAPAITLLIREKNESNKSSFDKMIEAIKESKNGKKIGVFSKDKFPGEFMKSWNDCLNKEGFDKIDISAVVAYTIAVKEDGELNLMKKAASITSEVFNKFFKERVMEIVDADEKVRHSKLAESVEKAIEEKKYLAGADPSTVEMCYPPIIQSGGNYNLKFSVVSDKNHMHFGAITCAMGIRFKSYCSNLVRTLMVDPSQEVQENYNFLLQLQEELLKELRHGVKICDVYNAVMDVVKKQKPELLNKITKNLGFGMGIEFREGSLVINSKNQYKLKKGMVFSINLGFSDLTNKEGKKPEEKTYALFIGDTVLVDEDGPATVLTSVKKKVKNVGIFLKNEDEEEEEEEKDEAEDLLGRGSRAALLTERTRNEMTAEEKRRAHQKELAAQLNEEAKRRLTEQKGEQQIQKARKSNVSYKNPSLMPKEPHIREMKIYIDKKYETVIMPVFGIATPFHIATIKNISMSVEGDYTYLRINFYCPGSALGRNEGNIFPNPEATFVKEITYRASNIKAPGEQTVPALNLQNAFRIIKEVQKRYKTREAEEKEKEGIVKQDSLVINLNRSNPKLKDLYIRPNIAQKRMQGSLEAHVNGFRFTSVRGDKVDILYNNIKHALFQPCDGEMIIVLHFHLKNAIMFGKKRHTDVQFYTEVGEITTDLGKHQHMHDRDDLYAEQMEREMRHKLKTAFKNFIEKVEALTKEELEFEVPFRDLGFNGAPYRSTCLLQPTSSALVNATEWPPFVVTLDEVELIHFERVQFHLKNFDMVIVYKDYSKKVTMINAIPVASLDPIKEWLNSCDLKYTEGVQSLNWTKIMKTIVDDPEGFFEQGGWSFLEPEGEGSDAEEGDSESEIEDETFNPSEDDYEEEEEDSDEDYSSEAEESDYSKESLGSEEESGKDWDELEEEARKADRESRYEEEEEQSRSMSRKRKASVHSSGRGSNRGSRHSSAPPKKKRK
UniProt Q08945: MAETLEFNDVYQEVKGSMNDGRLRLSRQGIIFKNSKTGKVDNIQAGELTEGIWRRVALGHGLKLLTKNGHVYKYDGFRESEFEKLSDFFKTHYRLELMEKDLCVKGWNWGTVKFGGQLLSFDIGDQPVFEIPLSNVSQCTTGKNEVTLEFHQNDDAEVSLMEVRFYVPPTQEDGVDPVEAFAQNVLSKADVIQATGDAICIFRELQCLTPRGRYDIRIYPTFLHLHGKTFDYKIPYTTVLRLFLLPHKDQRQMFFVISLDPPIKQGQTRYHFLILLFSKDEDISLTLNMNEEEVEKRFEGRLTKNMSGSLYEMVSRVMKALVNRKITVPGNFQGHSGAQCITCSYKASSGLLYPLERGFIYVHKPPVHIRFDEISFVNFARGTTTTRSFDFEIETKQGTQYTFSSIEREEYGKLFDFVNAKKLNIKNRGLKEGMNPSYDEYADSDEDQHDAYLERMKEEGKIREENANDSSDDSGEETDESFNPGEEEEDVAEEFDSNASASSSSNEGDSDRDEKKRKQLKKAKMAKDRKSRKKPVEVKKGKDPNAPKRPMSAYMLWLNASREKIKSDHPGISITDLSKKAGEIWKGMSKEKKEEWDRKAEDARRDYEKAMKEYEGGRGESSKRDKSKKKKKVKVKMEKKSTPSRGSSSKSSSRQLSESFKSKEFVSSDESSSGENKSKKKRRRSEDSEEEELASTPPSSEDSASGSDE
UniProt P49736: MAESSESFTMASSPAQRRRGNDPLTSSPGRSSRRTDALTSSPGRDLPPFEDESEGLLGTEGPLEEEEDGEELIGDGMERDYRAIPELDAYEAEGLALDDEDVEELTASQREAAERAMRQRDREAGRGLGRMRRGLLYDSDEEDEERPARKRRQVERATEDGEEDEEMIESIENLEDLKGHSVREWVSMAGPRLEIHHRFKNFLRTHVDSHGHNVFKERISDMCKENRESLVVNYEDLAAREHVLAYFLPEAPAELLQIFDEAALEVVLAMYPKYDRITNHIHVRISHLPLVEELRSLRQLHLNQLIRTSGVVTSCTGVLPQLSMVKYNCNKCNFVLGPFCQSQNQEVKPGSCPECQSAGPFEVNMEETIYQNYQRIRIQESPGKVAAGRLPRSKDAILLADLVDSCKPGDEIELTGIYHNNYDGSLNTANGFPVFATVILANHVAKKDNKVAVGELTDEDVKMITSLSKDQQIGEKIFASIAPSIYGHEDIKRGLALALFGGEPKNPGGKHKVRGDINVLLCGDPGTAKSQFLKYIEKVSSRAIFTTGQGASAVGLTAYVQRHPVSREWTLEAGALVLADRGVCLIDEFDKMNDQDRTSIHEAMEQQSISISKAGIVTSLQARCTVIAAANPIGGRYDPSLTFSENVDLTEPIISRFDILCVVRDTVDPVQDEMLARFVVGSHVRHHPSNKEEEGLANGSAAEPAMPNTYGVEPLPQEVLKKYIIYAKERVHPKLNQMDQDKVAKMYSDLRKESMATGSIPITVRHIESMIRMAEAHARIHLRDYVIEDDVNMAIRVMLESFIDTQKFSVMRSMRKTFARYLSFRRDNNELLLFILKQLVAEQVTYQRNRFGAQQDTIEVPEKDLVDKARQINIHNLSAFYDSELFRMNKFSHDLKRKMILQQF

How the values were obtained:
[1] = target: T1, FACT heterodimeric complex (hSpt16p and SSRP1) (human (endogenous in HeLa and K562)) (UniProt Q9Y5B9+Q08945); assay: co-IP; HeLa nuclear extracts fractionated by gel filtration on Sephacryl S-400; selected fractions immunoprecipitated with anti-SSRP1 mAb 10D1; Western blot
[2] = target: T1, FACT heterodimeric complex (hSpt16p and SSRP1) (human (endogenous in HeLa and K562)); assay: co-IP; HeLa nuclear extracts fractionated by gel filtration on Sephacryl S-400; selected fractions immunoprecipitated with anti-hSpt16p mAb 8D2; Western blot
[3] = target: T1, FACT heterodimeric complex (hSpt16p and SSRP1) (human (endogenous in HeLa and K562)); assay: co-IP; HeLa whole cell extracts and nuclear extracts; FACT precipitated with anti-hSpt16p mAb 8D2 prebound to protein G-Sepharose, washed in the cell lysis buffer; Western blot with pan-MCM or individual antibodies
[4] = target: T1, FACT heterodimeric complex (hSpt16p and SSRP1) (human (endogenous in HeLa and K562)); assay: co-IP; HeLa whole cell extracts and nuclear extracts (exponentially growing or synchronised cells); FACT precipitated with anti-SSRP1 mAb 10D1 prebound to protein G-Sepharose, washed in the cell lysis buffer; Western blot with pan-MCM or individual antibodies
[5] = target: T1, FACT heterodimeric complex (hSpt16p and SSRP1) (human (endogenous in HeLa and K562)); assay: co-IP; HeLa whole cell extracts and nuclear extracts; FACT precipitated with anti-hSpt16p mAb 8D2 prebound to protein G-Sepharose, washed in the cell lysis buffer; Western blot with pan-MCM or individual antibodies; remark: listed apart in the source
[6] = target: T1, FACT heterodimeric complex (hSpt16p and SSRP1) (human (endogenous in HeLa and K562)); assay: co-IP; HeLa whole cell extracts and nuclear extracts (exponentially growing or synchronised cells); FACT precipitated with anti-SSRP1 mAb 10D1 prebound to protein G-Sepharose, washed in the cell lysis buffer; Western blot with pan-MCM or individual antibodies; remark: listed apart in the source

| Molecule | binding [1] | binding [2] | binding [3] | binding [4] | binding [5] | binding [6] |
| --- | --- | --- | --- | --- | --- | --- |
| MCM2 (from UniProt P49736 1-904) | binds | binds | binds | binds | – | – |
| B1 | – | binds | – | – | binds | – |
| B2 | – | binds | – | – | binds | – |
| B3 | binds | – | – | – | – | binds |
| B4 | – | – | – | – | binds | binds weakly |
| B5 | – | – | – | – | binds | binds |

Reference: paper PMC2848000
